In the supplement of paper PMC10849652:
This is one part of the list.

Chains of the proteins cited; added tags and fusions are not shown. Lines headed by an entry give the natural chain unless they say otherwise; changes in a name come on top.
UniProt Q86UA6: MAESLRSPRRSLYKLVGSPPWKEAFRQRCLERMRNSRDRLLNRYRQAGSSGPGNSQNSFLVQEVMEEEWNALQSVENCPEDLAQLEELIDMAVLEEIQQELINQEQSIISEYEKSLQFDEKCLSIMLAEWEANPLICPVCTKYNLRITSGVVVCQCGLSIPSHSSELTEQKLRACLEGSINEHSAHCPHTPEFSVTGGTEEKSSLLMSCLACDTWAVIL
UniProt P27694, whole entry, looked up: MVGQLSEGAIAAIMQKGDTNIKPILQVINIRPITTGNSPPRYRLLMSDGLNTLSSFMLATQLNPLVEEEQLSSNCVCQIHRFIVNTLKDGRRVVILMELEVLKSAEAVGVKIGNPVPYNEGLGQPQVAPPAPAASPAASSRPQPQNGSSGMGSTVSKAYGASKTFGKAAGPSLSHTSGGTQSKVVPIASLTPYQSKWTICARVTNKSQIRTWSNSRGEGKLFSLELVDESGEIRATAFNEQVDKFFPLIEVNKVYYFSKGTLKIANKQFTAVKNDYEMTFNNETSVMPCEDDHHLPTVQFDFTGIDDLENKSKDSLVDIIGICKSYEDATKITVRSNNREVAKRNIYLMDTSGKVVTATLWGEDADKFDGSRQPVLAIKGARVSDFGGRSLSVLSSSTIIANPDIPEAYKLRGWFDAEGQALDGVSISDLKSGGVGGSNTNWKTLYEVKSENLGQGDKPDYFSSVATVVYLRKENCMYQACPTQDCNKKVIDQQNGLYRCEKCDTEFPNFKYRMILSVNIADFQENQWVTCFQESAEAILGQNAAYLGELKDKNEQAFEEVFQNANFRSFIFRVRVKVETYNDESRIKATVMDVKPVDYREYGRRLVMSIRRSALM

Legend:
Assay in all cases: log2 fold change, soluble protein after heating vs DMSO (PISA); higher = thermal stabilisation; K562 cells, 10 uM, 30 min; active = over 0.2 and 3.5 SD of the protein, either way, in both replicates (recomputed)
[1] = compound: C1=CC=C(C=C1)[C@H](COC2=CC3=C(C=C2)NC(=O)N3)NC(=O)C4=CC=CN(C4=O)CC5=CC(=C(C=C5)F)F
Procedure, shortened: (§1)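 Soluble protein was quantified by TMTpro 16plex LC-MS/MS after channel sums were equalised. It was obtained as the supernatant after 21,000xg for 90 min from pooled aliquots of K562 cells (2×10^6 cells/mL, 10 μM compound, 30 min) heated for 3 min across 48°C-58°C and extracted in PBS with 0.5% NP-40 at 4°C. Thermal stability values are relative to control samples and come from duplicates. They are given as log2 fold changes.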

[2] = compound: CC1=C(SC2=C1C(=N[C@H](C3=NN=C(N32)C)CC(=O)N)C4=CC=C(C=C4)Cl)C
Procedure, shortened: as §1

[3] = compound: CC1=C2C(=CC=C1)N=C(N(C2=O)C3=CC=CC=C3C)CN4C=NC5=C(N=CN=C54)N
Procedure, shortened: as §1

[4] = compound: Cc1sc2c(c1C)C(c1ccc(Cl)cc1)=N[C@@H](CC(=O)OC(C)(C)C)c1nnc(C)n1-2
Procedure, shortened: as §1

[5] = compound: c1ccc([C@@H]2C[C@H]2NC2CCNCC2)cc1
Procedure, shortened: as §1

Measured: log2 fold change

RPAIN isoform 8 (UniProt Q86UA6)
inactive: [1] 0.026 | [2] 0.057 | [3] 0.046 | [4] -0.038 | [5] 0.006

RPL27 (UniProt P61353)
inactive: [1] 0.208 | [2] -0.532 | [3] -0.696 | [4] 0.249 | [5] 0

RPL36AL (UniProt Q969Q0)
inactive: [1] 0.099 | [2] -0.36 | [3] -0.322 | [4] 0.192 | [5] 0

RPA1 (UniProt P27694)
inactive: [1] -0.032 | [2] 0.025 | [3] 0.087 | [4] -0.047 | [5] 0.011

RPS25 (UniProt P62851)
inactive: [1] 0.046 | [2] -0.166 | [3] -0.139 | [4] 0.09 | [5] 0.002
